Assay results reported in patent US20090209589A1, “N-[(PYRIDIN-2-YL) METHOXY] HETROCYCLYL CARBOXAMIDE DERIVATIVES AND RELATED COMPOUNDS AS FUNGICIDES” (Bayer Cropscience SA, priority 2006, published 2009).
Some results were stated once for a whole list of compounds, not compound by compound.

Tests used:
Alternaria brassicae = assay: In vivo test on Alternaria brassicae (leaf spot of crucifers); conditions: radish plants, preventive spray, dose of 330 ppm, grading 6 to 7 days after contamination
Botrytis cinerea = assay: In vivo test on Botrytis cinerea (grey mould); conditions: gherkin plants, preventive spray, dose of 330 ppm, grading 5/7 days after contamination

Which protection (Alternaria brassicae) does the source give for Cc1ccsc1C(=O)NOCc1ncc(C(F)(F)F)cc1Cl [Compound C-1, N-{[3-chloro-5-(trifluoromethyl)pyridin-2-yl]methoxy}-3-methylthiophene-2-carboxamide] here?
Its protection is “at least 70%”.

What about the protection (Botrytis cinerea) of the same compound?
The protection was “at least 70%”.
